In article PMC11845791:

T1: nucleotide pyrophosphatase (NPPS), endogenous in H292 isogenic cells (human (endogenous in H292)) (UniProt P22413)
T1 sequence: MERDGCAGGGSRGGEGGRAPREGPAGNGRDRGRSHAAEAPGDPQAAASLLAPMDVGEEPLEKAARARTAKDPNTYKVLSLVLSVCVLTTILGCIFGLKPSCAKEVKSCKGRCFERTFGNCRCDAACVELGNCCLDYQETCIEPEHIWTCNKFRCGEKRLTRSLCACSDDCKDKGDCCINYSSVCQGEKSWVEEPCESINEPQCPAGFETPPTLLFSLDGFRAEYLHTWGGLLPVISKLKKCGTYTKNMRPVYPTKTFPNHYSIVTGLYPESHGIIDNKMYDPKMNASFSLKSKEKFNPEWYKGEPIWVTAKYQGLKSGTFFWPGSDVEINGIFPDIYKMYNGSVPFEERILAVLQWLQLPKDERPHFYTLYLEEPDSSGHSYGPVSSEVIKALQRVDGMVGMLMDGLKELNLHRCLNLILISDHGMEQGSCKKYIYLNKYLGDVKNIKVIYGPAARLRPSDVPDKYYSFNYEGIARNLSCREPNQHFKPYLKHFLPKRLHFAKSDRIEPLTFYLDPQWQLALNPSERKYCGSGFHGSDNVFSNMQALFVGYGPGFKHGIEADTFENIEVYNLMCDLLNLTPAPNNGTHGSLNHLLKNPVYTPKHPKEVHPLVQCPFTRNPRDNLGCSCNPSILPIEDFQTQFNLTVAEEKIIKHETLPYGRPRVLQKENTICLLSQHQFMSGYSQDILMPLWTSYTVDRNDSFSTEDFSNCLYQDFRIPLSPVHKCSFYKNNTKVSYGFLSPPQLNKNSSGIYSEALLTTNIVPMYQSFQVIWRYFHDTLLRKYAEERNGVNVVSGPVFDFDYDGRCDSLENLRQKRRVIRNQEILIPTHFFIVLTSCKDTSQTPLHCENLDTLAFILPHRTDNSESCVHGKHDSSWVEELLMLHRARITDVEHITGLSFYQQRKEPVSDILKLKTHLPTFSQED


Molecular target: T1, nucleotide pyrophosphatase (NPPS), endogenous in H292 isogenic cells (human (endogenous in H292))
Assay: affinity purification with mass spectrometry; anti-NPPS immunoprecipitates from H292 isogenic cells (KRAS WT clone WT1, KRAS G12C clones C18 and C38); QE-Plus mass spectrometer; hits filtered for concurrent change in G12C clones and relation to glycolysis

binding	Binder
binds	phosphofructokinase, platelet (PFKP), endogenous in H292 isogenic cells (protein, UniProt Q01813 1-784) MDADDSRAPKGSLRKFLEHLSGAGKAIGVLTSGGDAQGMNAAVRAVVRMGIYVGAKVYFIYEGYQGMVDGGSNIAEADWESVSSILQVGGTIIGSARCQAFRTREGRLKAACNLLQRGITNLCVIGGDGSLTGANLFRKEWSGLLEELARNGQIDKEAVQKYAYLNVVGMVGSIDNDFCGTDMTIGTDSALHRIIEVVDAIMTTAQSHQRTFVLEVMGRHCGYLALVSALACGADWVFLPESPPEEGWEEQMCVKLSENRARKKRLNIIIVAEGAIDTQNKPITSEKIKELVVTQLGYDTRVTILGHVQRGGTPSAFDRILASRMGVEAVIALLEATPDTPACVVSLNGNHAVRLPLMECVQMTQDVQKAMDERRFQDAVRLRGRSFAGNLNTYKRLAIKLPDDQIPKTNCNVAVINVGAPAAGMNAAVRSAVRVGIADGHRMLAIYDGFDGFAKGQIKEIGWTDVGGWTGQGGSILGTKRVLPGKYLEEIATQMRTHSINALLIIGGFEAYLGLLELSAAREKHEEFCVPMVMVPATVSNNVPGSDFSIGADTALNTITDTCDRIKQSASGTKRRVFIIETMGGYCGYLANMGGLAAGADAAYIFEEPFDIRDLQSNVEHLTEKMKTTIQRGLVLRNESCSENYTTDFIYQLYSEEGKGVFDCRKNVLGHMQQGGAPSPFDRNFGTKISARAMEWITAKLKEARGRGKKFTTDDSICVLGISKRNVIFQPVAELKKQTDFEHRIPKEQWWLKLRPLMKILAKYKASYDVSDSGQLEHVQPWSV
binds	hexokinase 1 (HK1), endogenous in H292 isogenic cells (protein, UniProt P19367-1 1-917) MIAAQLLAYYFTELKDDQVKKIDKYLYAMRLSDETLIDIMTRFRKEMKNGLSRDFNPTATVKMLPTFVRSIPDGSEKGDFIALDLGGSSFRILRVQVNHEKNQNVHMESEVYDTPENIVHGSGSQLFDHVAECLGDFMEKRKIKDKKLPVGFTFSFPCQQSKIDEAILITWTKRFKASGVEGADVVKLLNKAIKKRGDYDANIVAVVNDTVGTMMTCGYDDQHCEVGLIIGTGTNACYMEELRHIDLVEGDEGRMCINTEWGAFGDDGSLEDIRTEFDREIDRGSLNPGKQLFEKMVSGMYLGELVRLILVKMAKEGLLFEGRITPELLTRGKFNTSDVSAIEKNKEGLHNAKEILTRLGVEPSDDDCVSVQHVCTIVSFRSANLVAATLGAILNRLRDNKGTPRLRTTVGVDGSLYKTHPQYSRRFHKTLRRLVPDSDVRFLLSESGSGKGAAMVTAVAYRLAEQHRQIEETLAHFHLTKDMLLEVKKRMRAEMELGLRKQTHNNAVVKMLPSFVRRTPDGTENGDFLALDLGGTNFRVLLVKIRSGKKRTVEMHNKIYAIPIEIMQGTGEELFDHIVSCISDFLDYMGIKGPRMPLGFTFSFPCQQTSLDAGILITWTKGFKATDCVGHDVVTLLRDAIKRREEFDLDVVAVVNDTVGTMMTCAYEEPTCEVGLIVGTGSNACYMEEMKNVEMVEGDQGQMCINMEWGAFGDNGCLDDIRTHYDRLVDEYSLNAGKQRYEKMISGMYLGEIVRNILIDFTKKGFLFRGQISETLKTRGIFETKFLSQIESDRLALLQVRAILQQLGLNSTCDDSILVKTVCGVVSRRAAQLCGAGMAAVVDKIRENRGLDRLNVTVGVDGTLYKLHPHFSRIMHQTVKELSPKCNVSFLLSEDGSGKGAALITAVGVRLRTEASS

These are yes or no findings as the source states them, for the method shown. Binding seen in cells or lysates may run through a third protein. A yes stands for co-enrichment or nearness to the bait. Other partners may have been found.
